Measurements taken from patent publication US20240139162A1, “Benzophenanthridine Alkaloids and Their Methods of Use” (Chengdu Anticancer Bioscience, LTD., priority 2019, published 2024).
At least one structure is not confirmed: it was looked up by name or label, or the drawing left a doubt.

Tested on: IMR 90 cells
Assay: IC50 in IMR 90 cells (Table 2)
Assay type: cell-based
Details: IMR 90, treatment 72 h
Procedure: Cells were split, plated in appropriate culture media and allowed to adhere. After 18 hours, corynoline and acetylcorynoline were added to a cell line selected from below. At 72 h or 96 h, MTT was added and at 75 h or 99 h, the A570 nm was recorded. The concentration ranged from 0.02 μM to 40 μM.
The effect of the compounds chelidonine and protopine on cell division was assessed similarly to corynoline and acetylcorynoline above. As described in Example 6 above, as cells enter and become arrested in mitosis, they detach from the plate surface and appear as rounded cells with a smooth surface membrane. RPE-MBC cells (ectopically expressing oncogenes MYC and Bcl2) were treated with DMSO, chelidonine and protopine, and compared against controls Michael's ketone (MK) and taxol.

CN(C)c1ccc(C(=O)c2ccc(N(C)C)cc2)cc1 [MK, Michael's ketone, reference compound]
IC50: > 40 µM
